{
  "source": "patent US11395867B2",
  "about": "“Degradable removable implant for the sustained release of an active compound” (Janssen Sciences Ireland Unlimited Company, priority 2009, dated 2022)",
  "assay": "TMC278 release from microparticle/CMC gel mixture in a laser perforated PLGA 85/15 tube (Hanson Dissolution Tester)",
  "format": "physicochemical",
  "conditions": "Example 2 perforated tube, 500 ml distilled water, 37° C.",
  "note": "At least one structure is not confirmed: it was looked up by name or label, or the drawing left a doubt.",
  "data": [
    {"compound": "Cc1cc(/C=C/C#N)cc(C)c1Nc1ccnc(Nc2ccc(C#N)cc2)n1", "note": "[TMC278, rilpivirine]", "values": [
      {"measurement": "Cumulative Release of TMC278; (Percent of Total load)", "setting": "Day 1", "result": "7.6% of Total load"},
      {"measurement": "Cumulative amount of TMC278 (micrograms) released", "setting": "Day 1", "result": 58, "unit": "micrograms"},
      {"measurement": "Cumulative Release of TMC278; (Percent of Total load)", "setting": "Day 3", "result": "7.8% of Total load"},
      {"measurement": "Cumulative amount of TMC278 (micrograms) released", "setting": "Day 3", "result": 59, "unit": "micrograms"},
      {"measurement": "Cumulative Release of TMC278; (Percent of Total load)", "setting": "Day 7", "result": "14.7% of Total load"},
      {"measurement": "Cumulative amount of TMC278 (micrograms) released", "setting": "Day 7", "result": 112, "unit": "micrograms"},
      {"measurement": "Cumulative Release of TMC278; (Percent of Total load)", "setting": "Day 10", "result": "16.4% of Total load"},
      {"measurement": "Cumulative amount of TMC278 (micrograms) released", "setting": "Day 10", "result": 125, "unit": "micrograms"},
      {"measurement": "Cumulative Release of TMC278; (Percent of Total load)", "setting": "Day 14", "result": "18.2% of Total load"},
      {"measurement": "Cumulative amount of TMC278 (micrograms) released", "setting": "Day 14", "result": 138, "unit": "micrograms"}
    ]}
  ]
}
